PubChem BioAssay AID200 (DTP/NCI, 2004)
The list does not hold the whole screen: it is rich in T/C values a quarter to a half above the control, in often repeated tests (any T/C) and in doses without a T/C. Further doses and runs are listed elsewhere. T/C is the treated group as % of the vehicle group. Some doses have a count of surviving animals in place of a T/C: the source holds a T/C of zero for them, seemingly a mark for toxic or unscored doses. Some doses without a T/C left all or most animals alive at the check, yet need not have been tolerated: survival well below the control is almost never listed, so the zero probably covers shortened survival too. Survivors were counted at the toxicity check, usually on the fifth day, unless a day is given; later deaths do not show. Schedule codes are those of the source, taken here to give the interval after Q, in days (D) or hours (H), and the number of doses after X. Marks such as (2×) stand for listed records that agree. Some doses were run more than once; the results are listed from low to high. Some molecules as drawn cover several salts, stereoisomers or complexes of the source; a dose is that of the sample tested. For survival time, this PubChem deposit counts one and a half times the control or more as active, and values a quarter to a half above the control carry no call in these data; other NCI protocols may use other cut-offs. Some T/C values carry the count of animals alive at the toxicity check (mostly the fifth day); where none is given, no animal had died by that day.

System: B6C3F1 mice, B16 melanoma ip, median survival T/C
Test: NCI In Vivo Anticancer Drug Screen. Data for tumor model B16 Melanoma (intraperitoneal) in B6C3F1 mice
Conditions: T/C endpoint: median survival time, higher T/C = longer survival
Procedure, shortened: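 Values are T/C ratios: the measurement in treated animals divided by that in vehicle-treated controls, using survival or tumor size in mice carrying transplantable tumors.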

[1] = dose: 100.0 mg/kg/injection, schedule: Q01DX009 (ip), vehicle: saline with Tween-80
[2] = dose: 400.0 mg/kg/injection, schedule: Q01DX009 (ip), vehicle: saline with Tween-80
[3] = dose: 25.0 mg/kg/injection, schedule: Q01DX009 (ip), vehicle: saline with Tween-80
[4] = dose: 200.0 mg/kg/injection, schedule: Q01DX009 (ip), vehicle: DMSO
[5] = dose: 0.5 mg/kg/injection, schedule: Q01DX009 (ip), vehicle: saline with Tween-80

For `Nc1nc(N)c2cc(S(=O)(=O)c3ccccc3)ccc2n1`, the T/C [1] was 129 and 134 % of control, the survivor count [2] was 10 of 10 and the survivor count (dose: 800.0 mg/kg/injection, schedule: Q01DX009 (ip), vehicle: saline with Tween-80) was 10 of 10.
In the case of `COc1ccc(C[C@@H]2NC[C@@H](O)[C@@H]2OC(C)=O)cc1`, the T/C [3] is reported as 125 % of control, the T/C (dose: 50.0 mg/kg/injection, schedule: Q01DX009 (ip), vehicle: saline with Tween-80) is reported as 135 % of control and the T/C [1] is reported as 125 [9 of 10 alive] and 136 % of control. The survivor count [2] was 0 of 10 and 6 of 10 and the survivor count (dose: 400.0 mg/kg/injection, schedule: Q04DX003 (ip), vehicle: saline with Tween-80) was 5 of 10.
In the case of `Cc1c(CNc2ccc(C(=O)NC(CC(=O)O)C(=O)O)cc2)ccc2nc(N)nc(N)c12` (configuration not stated), the survivor count (dose: 0.39 mg/kg/injection, schedule: Q01DX009 (ip), vehicle: saline with Tween-80) is reported as 10 of 10, the survivor count (dose: 0.78 mg/kg/injection, schedule: Q01DX009 (ip), vehicle: saline with Tween-80) is reported as 7 of 10 and the survivor count (dose: 1.56 mg/kg/injection, schedule: Q01DX009 (ip), vehicle: saline with Tween-80) is reported as 3 of 10.
`CC(C)(C)N1CC1CNC(=O)C(=O)NCC1CN1C(C)(C)C` (configuration not stated) was tested, and the T/C (dose: 6.25 mg/kg/injection, schedule: Q01DX009 (ip), vehicle: saline with Tween-80) was 125 % of control and the survivor count [3] was 10 of 10.
`COc1cccc2c1C(=O)c1c(O)c3c(c(O)c1C2=O)C[C@H](O)C[C@@H]3OC1CC(N)C(O)C(C)O1` (some centres not stated) was tested, and the survivor count (dose: 24.0 mg/kg/injection, schedule: Q01DX009 (ip), vehicle: water) was 10 of 10.
`COc1cc([C@@H]2c3cc4c(cc3[C@@H](OC3OC5CO[C@@H](c6cccs6)OC5C(O)C3O)[C@H]3COC(=O)[C@H]23)OCO4)cc(OC)c1O` (some centres not stated) was tested, and the T/C (dose: 2.0 mg/kg/injection, schedule: Q01DX009 (ip), vehicle: saline) was 129 % of control.
`CNC(=O)OCc1c(COC(=O)NC)c(-c2ccccc2)n(C)c1-c1ccccc1` was tested, and the T/C (dose: 3.12 mg/kg/injection, schedule: Q01DX009 (ip), vehicle: distilled water + Tween-80) was 128 % of control, the T/C (dose: 6.25 mg/kg/injection, schedule: Q01DX009 (ip), vehicle: distilled water + Tween-80) was 140 % of control and the survivor count (dose: 50.0 mg/kg/injection, schedule: Q01DX009 (ip), vehicle: distilled water + Tween-80) was 10 of 10. For the same compound, the survivor count (dose: 100.0 mg/kg/injection, schedule: Q01DX009 (ip), vehicle: distilled water + Tween-80) was 7 of 10.
`Nc1nc(-c2ccc(S(=O)(=O)O)cc2)cc(=O)[nH]1` was tested, and the T/C (dose: 13.25 mg/kg/injection, schedule: Q01DX009 (ip), vehicle: saline) was 130 % of control.
For `[N-]=[N+]=[N-]`, the survivor count (dose: 24.0 mg/kg/injection, schedule: Q01DX009 (ip), vehicle: saline) was 0 of 10.
`O=C1C2=C(C(=O)c3cnccc31)C1C=CC2CC1` (configuration not stated) was tested, and the survivor count [4] was 7 of 10.
In the case of `Oc1ccc2ccccc2c1N=Nc1ccc(Cl)cc1`, the survivor count [2] is reported as 10 of 10.
With `CO[C@H]1Nc2c(ccc(C)c2O)C(=O)N2C=C(/C=C/C(N)=O)C[C@@H]12` the survivor count (dose: 0.25 mg/kg/injection, schedule: Q01DX009 (ip), vehicle: saline with Tween-80) was 10 of 10, the T/C [5] was 147 % of control and the survivor count [5] was 9 of 10. The survivor count (dose: 0.8 mg/kg/injection, schedule: Q04DX003 (ip), vehicle: DMSO) was 8 of 10 and the survivor count (dose: 1.0 mg/kg/injection, schedule: Q01DX009 (ip), vehicle: saline with Tween-80) was 0 of 10 and 1 of 10.
In the case of `CCSCCNC(=O)[C@@]1(O)[C@H](O)[C@]2(CC)C=CCN3CC[C@@]4(c5cc([C@@]6(OC(C)=O)C[C@H]7C=C(CC)CN(CCc8c6[nH]c6ccccc86)C7)c(OC)cc5N(C)[C@@H]14)[C@@H]32`, the T/C (dose: 0.13 mg/kg/injection, schedule: Q01DX009 (ip), vehicle: water) is reported as 132 % of control, the T/C (dose: 0.25 mg/kg/injection, schedule: Q01DX009 (ip), vehicle: water) is reported as 129 % of control [9 of 10 alive] and the T/C (dose: 1.0 mg/kg/injection, schedule: Q01DX009 (ip), vehicle: water) is reported as 138 % of control. The survivor count (dose: 2.0 mg/kg/injection, schedule: Q01DX009 (ip), vehicle: water) was 10 of 10.
With `CCCCc1ccc(-n2c(C)c(COC(=O)NC)c(COC(=O)NC)c2C)cc1` the T/C (dose: 3.12 mg/kg/injection, schedule: Q01DX009 (ip), vehicle: Klucel (hydroxypropylcellulose) (HPC)) was 145 % of control and the survivor count (dose: 50.0 mg/kg/injection, schedule: Q01DX009 (ip), vehicle: Klucel (hydroxypropylcellulose) (HPC)) was 10 of 10.
`Cn1cc(NC(=O)c2cc(NC(=O)c3cc(NC=O)cn3C)cn2C)cc1C(=O)NCCC(=N)N` was tested, and the T/C (dose: 12.5 mg/kg/injection, schedule: Q01DX009 (ip), vehicle: water, evaluated on day 52) was 145 % of control, the T/C (dose: 12.5 mg/kg/injection, schedule: Q01DX009 (ip), vehicle: water, evaluated on day 60) was 97 and 105 % of control and the T/C (dose: 25.0 mg/kg/injection, schedule: Q01DX009 (ip), vehicle: water, evaluated on day 52) was 125 % of control. For the same compound, the T/C (dose: 25.0 mg/kg/injection, schedule: Q01DX009 (ip), vehicle: water, evaluated on day 60) was 101 [9 of 10 alive], 105, 106 % of control, the T/C (dose: 50.0 mg/kg/injection, schedule: Q01DX009 (ip), vehicle: water, evaluated on day 52) was 129 % of control and the T/C (dose: 50.0 mg/kg/injection, schedule: Q01DX009 (ip), vehicle: water, evaluated on day 60) was 89 (2×) and 101 % of control. For the same compound, the survivor count (dose: 100.0 mg/kg/injection, schedule: Q01DX009 (ip), vehicle: water) was 10 of 10 (2×) and the survivor count (dose: 200.0 mg/kg/injection, schedule: Q01DX009 (ip), vehicle: water) was 0 of 10.
In the case of `O=C(O)C1CCCN1C(=O)OCC1c2ccccc2-c2ccccc21` (configuration not stated), the survivor count (dose: 400.0 mg/kg/injection, schedule: Q01DX009 (ip), vehicle: Klucel (hydroxypropylcellulose) (HPC)) is reported as 2 of 10.
With `O=P1(N(CCCl)CCCl)NCCCO1` (configuration not stated) the T/C (dose: 25.0 mg/kg/injection, schedule: Q01DX009 (ip), vehicle: saline) was 148 % of control, the T/C (dose: 37.5 mg/kg/injection, schedule: Q01DX005 (iv), vehicle: saline) was 125 % of control and the T/C (dose: 75.0 mg/kg/injection, schedule: Q01DX005 (ip), vehicle: saline) was 148 % of control. The T/C (dose: 100.0 mg/kg/injection, schedule: Q01DX001 (ip), vehicle: saline) was 131 and 146 % of control, the survivor count (dose: 100.0 mg/kg/injection, schedule: Q01DX009 (ip), vehicle: saline) was 10 of 10 and the T/C (dose: 150.0 mg/kg/injection, schedule: Q01DX001 (ip), vehicle: saline) was 145 % of control. For the same compound, the T/C (dose: 150.0 mg/kg/injection, schedule: Q01DX001 (iv), vehicle: saline) was 134 % of control and the survivor count (dose: 150.0 mg/kg/injection, schedule: Q01DX005 (iv), vehicle: saline) was 10 of 10.
`Oc1cc(O)cc(/C=C/c2ccc(O)c(O)c2)c1` was tested, and the T/C (dose: 50.0 mg/kg/injection, schedule: Q01DX009 (ip), vehicle: DMSO) was 125 % of control, the survivor count [4] was 0 of 10 and the survivor count (dose: 400.0 mg/kg/injection, schedule: Q01DX009 (ip), vehicle: DMSO) was 0 of 10.
`CC(=O)Nc1ccc(C(=O)C=O)cc1` was tested, and the survivor count (dose: 200.0 mg/kg/injection, schedule: Q01DX009 (ip), vehicle: saline with Tween-80) was 7 of 9 and 10 of 10.
In the case of `CN(C)CCCOc1nc2c(c(=O)n(C)c(=O)n2C)n1C` (tested in a mixture with another compound), the survivor count (dose: 100.0 mg/kg/injection, schedule: Q01DX009 (ip), vehicle: Klucel (hydroxypropylcellulose) (HPC)) is reported as 10 of 10.
With `CN(C)c1ccc(C(=C2C=CC(=[N+](C)C)C=C2)c2ccc(N(C)C)cc2)cc1` (tested in a mixture with another compound) the survivor count (dose: 5.0 mg/kg/injection, schedule: Q01DX009 (ip), vehicle: saline) was 1 of 10 and the survivor count (dose: 10.0 mg/kg/injection, schedule: Q01DX009 (ip), vehicle: saline) was 0 of 10.
For `COc1cccc2c1C(=O)c1c(O)c3c(c(O)c1C2=O)C[C@@](O)(C(=O)CO)C[C@@H]3OC1CC(N(C)C)C(O)C(C)O1` (some centres not stated), the survivor count (dose: 4.0 mg/kg/injection, schedule: Q01DX009 (ip), vehicle: saline) was 10 of 10.
For `NCCc1ccc(O)c(O)c1`, the T/C (dose: 600.0 mg/kg/injection, schedule: Q01DX009 (ip), vehicle: saline) was 137 % of control, the T/C (dose: 1200.0 mg/kg/injection, schedule: Q01DX009 (ip), vehicle: saline) was 127 % of control and the survivor count (dose: 1600.0 mg/kg/injection, schedule: Q01DX009 (ip), vehicle: saline) was 0 of 10.
